# Data from publication PMC4394352.
# These are yes or no findings as the source states them, for the method shown. For some assays here: In cells and extracts the contact can be indirect. Some entries that bind do so weakly or less than the wild type. For some assays here: Tags and fused reporters may be left off the sequences shown.
# Key:
# [1] = target: T1, PPP1R15B(631–701–H6) (human) (UniProt Q5SWA1); assay: crystal structure; ternary complex PP1G(1–323)-PPP1R15B(631–701–H6)-actin; 0.2 M CaCl2, 0.1 M Hepes pH 7.0, 20% PEG6000; molecular replacement; 7.9 Å; both purified
# T1 sequence: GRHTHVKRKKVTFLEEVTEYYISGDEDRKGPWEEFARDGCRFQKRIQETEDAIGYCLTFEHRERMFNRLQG
# [2] = target: T2, PPP1R15B(631–660) (human) (UniProt Q5SWA1); assay: crystal structure; binary complexes PP1G(7–300)-PPP1R15B(631–660, 631–669 or 631–684); sitting drops; molecular replacement; 1.55–1.85 Å; both purified
# T2 sequence: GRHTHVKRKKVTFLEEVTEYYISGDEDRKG
# [3] = target: T3, PPP1R15B(631–669) (human) (UniProt Q5SWA1); assay: as above
# T3 sequence: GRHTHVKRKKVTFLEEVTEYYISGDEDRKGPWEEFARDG
# [4] = target: T4, PPP1R15B(631–684) (human) (UniProt Q5SWA1); assay: as above
# T4 sequence: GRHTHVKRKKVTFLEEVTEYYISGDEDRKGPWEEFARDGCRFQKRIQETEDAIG
# [5] = target: T5, GST-PPP1R15B(630–701) (human) (UniProt Q5SWA1); assay: pull-down; GST-PPP1R15 functional core and untagged PP1 co-expressed in E. coli; clarified lysate bound to glutathione sepharose 4B at 4°C, washed in 50 mM Tris pH 7.4, 500 mM NaCl, eluted with 40 mM GSH
# T5 sequence: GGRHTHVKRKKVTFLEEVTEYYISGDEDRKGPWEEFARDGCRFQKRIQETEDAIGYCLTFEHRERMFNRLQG
# [6] = target: T6, PPP1R15B(630–701) (human) (UniProt Q5SWA1); assay: SEC; binary complex after TEV cleavage of GST; tandem Superdex 75 and Superdex 200 10/300 with a GSTrap 4B column at the outflow; 20 mM HEPES, 100 mM NaCl, 0.1 mM MgCl2, 0.5 mM MnCl2, 0.1 mM ADP, 0.2 mM TCEP; both purified
# T6 sequence: T5 sequence
# [7] = target: T7, PPP1R15B(631–701)-MBP (human) (UniProt Q5SWA1); assay: as above
# T7 sequence: T1 sequence
# [8] = target: T8, PPP1R15B(631–701) (human) (UniProt Q5SWA1); assay: SEC; ternary complex: stoichiometric binary complex on glutathione-sepharose resin incubated with latrunculin B-blocked G-actin 90–120 min at 4°C, eluted, TEV-cleaved, tandem Superdex 75/200 SEC; fractions on Coomassie-stained SDS-PAGE; both purified
# T8 sequence: T1 sequence
substance,measurement,setting,value
PP1G(1–323) (from UniProt P63087 1-323) (enzyme),binding,[1],binds
PP1G(7–300) (from UniProt P63087 7-300) (enzyme),binding,[2],binds
same,binding,[3],binds
same,binding,[4],binds
same,binding,[5],binds
same,binding,[6],binds
same,binding,[7],binds
PP1G(7–323) (from UniProt P63087 7-323) (enzyme),binding,[8],binds
